Reference: patent publication US9046767B2, “Photoacid generator, photoresist, coated substrate, and method of forming an electronic device” (ROHM AND HAAS ELECTRONIC MATERIALS LLC, priority 2013, dated 2015)

Legend:
[1] = Lithographic evaluation using positive tone development; settings: photoresist with polymer A2, 193 nm, 90 nm L/S pattern, 0.26 N TMAH developer
[2] = Lithographic evaluation using negative tone development; settings: photoresist with polymer A3, immersion ArF, n-butyl acetate developer

Molecule | CD (critical dimension) [1] [nm] | E0 (dose to clear) [1] [mJ/cm^2] | EL (exposure latitude) [1] [%] | Es (sizing energy) [1] [mJ/cm^2] | LWR (line width roughness) [1] [nm] | MEF (mask error factor) [1] | CDU (Critical Dimension Uniformity) [2] [nm] | EL (exposure latitude) [2] [%] | Es (optimum energy to print 60/90 nm contact holes) [2] [mJ/cm^2]
4-(2-oxo-2-(2,2,2′,2′-tetramethyl-4,4′-bis(1,3-dioxolan)-5-yl-methoxyethoxy)phenyl)diphenylsulfonium 1-adamantyl-3,3,4,4-tetrafluorobutane sulfonate [PAG-A1] | 91.27 | 10.0 | 8.64 | 48.0 | 12.8 | 3.67 |  |  | 
CC1(C)OCC(C2OC(C)(C)OC2COC(=O)COc2ccc([S+](c3ccccc3)c3ccccc3)cc2)O1.O=C(OCC12CC3CC(CC(O)(C3)C1)C2)C(F)(F)S(=O)(=O)[O-] (stereo not drawn) [PAG-A2, 4-(2-oxo-2-(2,2,2′,2′-tetramethyl-4,4′-bis(1,3-dioxolan)-5-yl-methoxyethoxy)phenyl)diphenylsulfonium 1,1-difluoro-2-(3-hydroxyadamantan-1-yl-methoxy)-2-oxoethanesulfonate] | 91.41 | 17.4 | 8.10 | 67.0 | 13.2 | 3.53 | 6.42 | 9.9 | 40.1
Triphenylsulfonium 1,1-difluoro-2-((-3-hydroxyadamantan-1-yl)methoxy)-2-oxoethanesulfonate [C. PAG 2, reference compound] | 91.49 | 9.6 | 9.47 | 45.9 | 12.4 | 3.45 | 7.12 | 9.9 | 29.6
Triphenylsulfonium perfluorobutanesulfonate [C. PAG 1, reference compound] | 91.62 | 5.6 | 6.99 | 24.6 | 12.0 | 4.04 |  |  | 
